Assay results as given in patent publication US20040081972A1 (priority 2000, published 2004).

Experiments:
[1] = general procedure: Fmoc solid-phase peptide synthesis; Rink amide MBHA resin; conditions: whole synthesis, scale 16.5 umol
[2] = general procedure: Fmoc solid-phase peptide synthesis; NovaSyn TGR resin; conditions: whole synthesis
[3] = general procedure: Fmoc solid-phase peptide synthesis; H-Cys(Trt)-2-ClTrt resin; conditions: whole synthesis, scale 34.2 umol

| Substance | crude mass ([2]; scale 12.6 umol) [mg] | isolated mass ([2]; scale 12.6 umol) [mg] | also measured |
| --- | --- | --- | --- |
| H-CLIGEVSSGSGETFSYPDFLRMML-NH2 |  |  | crude mass [1]: 48.9 mg; isolated mass [1]: 11.6.mg |
| H-CMLEKLGVPKTHLELKKLIGEVSSGSGETFSYPDFLRMML-NH2 |  |  | crude mass ([2]; scale 12.5 umol): 54.2 mg; isolated mass ([2]; scale 12.5 umol): 8.7 mg |
| H-CMLEKLGVPKTHLELKKLIREVSSGSEETFSYSDFLRMML-NH2 | 58.6 | 5.9 |  |
| H-LIREVSSGSEETFSYSDFLRMML-NH2 | 38.3 | 11.7 |  |
| H-LSPHTKLSYGEGVFLRLSKSEGLMEIKLMEDLMVFPKTG-NH2 | 59.3 | 10.3 |  |
| H-Leu-Ser-Pro-His-Thr-Lys-Leu-Ser-Tyr-Arg-Glu-Glu-Val-Phe-Leu-Arg-Leu-Ser-Lys-Ser-Glu-Gly-Leu-Met-Glu-Ile-LYB-Leu-Met-Glu-Asp-Leu-Met-val-Phe-Ser-Arg-Thr-Gly-NH2 (LSPHTKLSYREEVFLRLSKSEGLMEIKLMEDLMVFSRTG; C-terminal amide; non-natural residues LYB, D-Val; variant of peptide 2 (SEQ ID NO37)) | 69.6 | 13.2 |  |
| H-MLEKLGVPKTHLELKRLIREVSSGSEETFSYSDFLRMML-NH2 | 66.7 | 14.4 |  |
| H-MMEKLGVPKTHLEMKKMISEVTGGVSDTISYRDFVNMML-NH2 | 55.2 | 12.0 |  |
| H-Met-Met-Glu-Lys-Leu-Gly-val-Pro-Lys-Thr-His-Leu-Glu-Met-Lys-Cys-OH |  |  | crude mass [3]: 38.2 mg; isolated mass [3]: 27.5 mg |
| H-Val-Thr-Pro-His-Thr-Lys-Leu-Val-Tyr-Ser-Glu-Ser-Val-Ile-Met-Asn-Met-Ser-Lys-Gly-Glu-Gly-Leu-Met-Glu-Ile-Lys-Leu-Met-Asp-Asp-Met-Met-Thr-Phe-Arg-Lys-val-Gly-NH2 (VTPHTKLVYSESVIMNMSKGEGLMEIKLMDDMMTFRKVG; C-terminal amide; D-Val; variant of peptide 3 (SEQ ID NO38)) | 60.3 | 8.7 |  |
